Laboratory results published in US6787530B1, “Use of pregnane-diones as analgesic agents” (priority 1996, dated 2004).
For at least one compound, name, drawing or mass did not settle the structure.

Tests used:
[1] = system: spinal cord GABAA receptors
Description: A study was performed on five rats. Alphadolone ([…]) was suspended in normal saline. The five rats were randomised to receive on two different occasions on two different days either […]. This was a cross-over study such that on the following occasion if a rat had received vehicle on the first occasion then it received alphadolone on the second occasion and vice versa. This dosing was randomised and the observer making measurements of pain thresholds was blinded to the nature of the drug given to these rats. In each experiment, the electrical current threshold in the neck and the tail were measured every five minutes until three stable readings were obtained. Then either vehicle or alphadolone 750 mg per kg suspended in saline was instilled into the stomach via an oesophageal needle. Five minutes later and every five minutes thereafter, electrical current thresholds for nociception were measured in the skin of the tail and neck At 60 minutes 10 pmol of bicuculline in 5 μl 6% dextrose was injected intrathecally down a Portex catheter that had been implanted previously in the lumbar sub arachnoid space to lie adjacent to the most caudal segments of spinal cord responsible for tail innervation.

[2] = system: spinal cord GABAA receptors; format: in vivo, rat; settings: intrathecal bicuculline
Source text: Groups of 10 rats were examined for the duration of the loss of righting reflex and loss of coordination in the rotarod test and also for antinociceptive effects in the electrical current threshold test measured in the tail. […] Thus we were able to compare the duration of sedation and anaesthesia and quantity of antinociception following intraperitoneal administration of the neurosteroid mixture and also following the components of the mixture at the doses which were given when the combination was used.
Rats were given a range of doses of alphadolone from 0.1 to 100 mg/kg intraperitoneally. The antinociceptive effect was measured using electrical current in the tail.

[3] = 10 pmol bicuculline intrathecally at 60 minutes after intragastric alphadolone 750 mg per kg

CN1CCc2cc3c(cc2[C@H]1[C@@H]1OC(=O)c2c1ccc1c2OCO1)OCO3 [bicuculline, reference compound]
effect on antinociceptive effects of oral alphadolone measured in the tail [1, 3]: completely reversed the antinociceptive effects of oral alphadolone
effect on neck electrical current thresholds after oral alphadolone [1, 3]: no change in the neck thresholds
effect on electrical current threshold in the tail or the neck after intragastric vehicle ([1]; 10 pmol bicuculline intrathecally at 60 minutes after intragastric vehicle): no changes in the electrical current threshold
effect on the antinociceptive effects of Saffan [2]: completely suppressed
